Some of the results follow. The main result of the screen is listed elsewhere. These columns were measured beside it and carry no call. The list favours compounds with an active or inconclusive main result. The note in brackets gives the kind of curve behind each potency; many fits are weak.
experiment: Cell signaling CRE-BLA (Fsk stim); details: CHO CRE-bla reporter (cAMP response element driving beta-lactamase), forskolin EC10, beta-lactamase ratio; measured here: 460 nm blue channel
Method in brief: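 CRE-bla CHO reporter cells treated with compound titration plus EC10 NKH 477 (water-soluble forskolin), incubated 3 h at 37 °C; CCF4 loading 2 h at room temperature, 460/530 nm emission ratio read, AC50 values derived for positive or negative modulators.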

| SMILES | AC50 |
| --- | --- |
| Cc1ccccc1CN1CCNC1=O | 2.51 µM [rising, partial curve] |
| COc1ccc2c(c1OC)C(=O)N(c1nccs1)C2 | 20 µM [rising, partial curve] |
| Cc1ccc(CNC(=O)CCS(=O)(=O)c2ccc(Br)s2)o1 | 0.158 µM [falling, full curve] |
| FC(F)(F)c1ccccc1-c1nc(Nc2ccncc2)c2ccccc2n1 | 0.794 µM [rising, partial curve] |
| CCOC(=O)CSc1nc2ccc(NC(C)=O)cc2s1 | 1.58 µM [rising, partial curve] |
| O=C(Nc1ccc(Cl)cc1C(=O)NCc1cccnc1)c1ccco1 | 20 µM [rising, partial curve, poor fit] |
| O=c1c(-c2ccc(F)cc2)nc2cnc(N3CCOCC3)nc2n1Cc1cccs1 | 3.16 µM [rising, partial curve] |
| Cc1c(C)c2ccc(OCC(=O)N(C)C)c(C)c2oc1=O | 12.6 µM [rising, single point] |
| COc1ccc(OCC(O)COc2ccc(OC)cc2)cc1 | 0.00398 µM [falling, partial curve, poor fit] |
| CC1CCCc2sc3nc(NCc4ccco4)n4ncnc4c3c21 (configuration not stated) | 2 µM [rising, full curve] |
| Nc1cc(=O)[nH]c(SCC(=O)Nc2ccc(Br)cc2)n1 | 2.51 µM [falling, partial curve] |
| O=C(Nc1ccc(Cl)c(C(F)(F)F)c1)C1CCCN(S(=O)(=O)c2cnc[nH]2)C1 (configuration not stated) | 0.0794 µM [falling, full curve, poor fit] |
| Cc1ccc(NCc2nnc(SCC(=O)N(Cc3ccccc3)C(C)(C)C)o2)c(C)c1 | 15.8 µM [falling, partial curve] |
| Cc1ccc(C)c(Cn2c(=O)n(CCC(=O)NCc3ccco3)c(=O)c3ccccc32)c1 | 12.6 µM [rising, single point] |
| C=CCn1c(=O)c2ccccc2n2c(SCc3cc(=O)n4ccsc4n3)nnc12 | 10 µM [rising, single point] |
| Cc1csc(OCc2ccc(C#N)cc2)n1 | 0.0794 µM [falling, full curve, poor fit] |
| CCCC(=O)c1cc2ccccc2oc1=O | 0.0631 µM [rising, full curve] |
| COc1cccc(-c2nc(N3CCNCC3)c3ccccc3n2)c1 | 5.01 µM [rising, full curve, poor fit] |
| Clc1ccc(OCCN2CCN(c3ncnc4sccc34)CC2)cc1 | 0.0398 µM [falling, full curve, poor fit] |
| CCCCCCC1C(C#N)=C(N)OC2=C1C(=O)CCC2 (configuration not stated) | 12.6 µM [rising, single point] |
| O=C(CCC(=O)c1ccc[nH]1)c1ccc(Cl)cc1 | 1.58 µM [falling, partial curve, poor fit] |
| COc1ccc(CC(=O)Nc2cccc(-c3nnc(-c4cccc(C)c4)o3)c2)cc1OC | 1.26 µM [falling, full curve] |
| COc1cc(C(=O)N2CCN(C(=O)C(Cc3cc(C)ccc3C)NC(C)=O)CC2)cc(OC)c1OC (configuration not stated) | 2.51 µM [falling, partial curve] |

| SMILES | AC50 |
| --- | --- |
| c1ccc(CN2CCN(c3ncnc4nc[nH]c34)CC2)cc1 | 12.6 µM [rising, single point] |
| CCSc1nnc(NC(=O)c2ccc(Br)s2)s1 | 0.00316 µM [falling, full curve, poor fit] |
| CC1=CCC(C(=O)O)C(C(=O)O)C1 (configuration not stated) | 0.00398 µM [falling, full curve, poor fit] |
| Cc1c(C(=O)O)sc2nc3n(c(=O)c12)CCC(C)CC3 (configuration not stated) | 0.00398 µM [falling, full curve, poor fit] |
| Cc1ccc(NC(=O)CN2C(=O)NC(Cc3ccccc3)C2=O)cc1 (configuration not stated) | 0.00631 µM [falling, full curve] |
| C=CCN1CN(S(=O)(=O)c2cccs2)c2nc3ccccc3nc21 | 12.6 µM [rising, partial curve] |
| Cc1ccc(S(=O)(=O)Nc2nc3ccccc3nc2NCc2ccco2)cc1C | 25.1 µM [rising, single point] |
| COc1ccc(NC(=O)C2CCCN(S(=O)(=O)c3cccc4cccnc34)C2)cc1OC (configuration not stated) | 2.51 µM [rising, partial curve] |
| O=C(OCCN1C(=O)c2ccccc2C1=O)c1cc(=O)[nH]c2ccccc12 | 10 µM [rising, partial curve] |
| Cc1cccc(OCc2nnc(SCC(=O)N(C(C)C)C(C)C)n2Cc2ccco2)c1C | 10 µM [rising, partial curve] |
| Cc1nnc(OCc2nc3ccccc3n2C)c2ccccc12 | 3.98 µM [rising, partial curve] |
| COc1ccc(C(c2nnnn2Cc2ccc(F)cc2)N2CCN(c3ccccc3)CC2)cc1 (configuration not stated) | 1.58 µM [falling, partial curve, poor fit] |
| COC(=O)c1sc(NC(=O)c2ccc(OC)cc2OC)nc1C | 25.1 µM [rising, single point] |
| COc1cc(OC)nc(NC(=O)CSc2nc3ccccc3[nH]2)n1 | 15.8 µM [rising, single point] |
| COc1ccc(-c2noc(CCC(=O)N(C)c3cccc(C)c3)n2)cc1 | 20 µM [rising, partial curve, poor fit] |
| OC1CCCN(c2c3c(nc4cc(-c5cccc(Cl)c5)nn24)CCC3)C1 (configuration not stated) | 12.6 µM [rising, partial curve] |
| COC(=O)[C@@]1(Cc2ccc(OC)cc2)[C@H]2c3cc(C(=O)N4CCCC4)n(Cc4ccc(O)c(OC)c4)c3C[C@H]2CN1C(=O)c1ccccc1 | 2.51 µM [rising, full curve] |
| O=C(NCC(c1cccnc1)N1CCN(c2ccc(F)cc2)CC1)OCc1ccccc1 (configuration not stated) | 0.1 µM [falling, full curve] |
| COc1ccc(S(=O)(=O)N(CCN2CCOCC2)Cc2cc(OC)ccc2OC)cc1 | 31.6 µM [rising, single point] |
| COc1cccc(OCCOc2cccc(/C=N/n3cnnc3)c2)c1 | 25.1 µM [rising, single point] |
| Cc1ccc(Cn2ccc(NC(=O)c3cc(-c4ccco4)on3)n2)cc1 | 0.0316 µM [falling, full curve, poor fit] |
| CCC(c1nnc(SCC(=O)Nc2nnc(-c3ccccc3)o2)o1)N(C)C (configuration not stated) | 0.251 µM [falling, full curve, poor fit] |
| CCOc1ccc(CCNC(=O)Cn2c(-c3nonc3N)nc3ccccc32)cc1OCC | 0.794 µM [rising, full curve] |

| SMILES | AC50 |
| --- | --- |
| N#CCCn1c(=O)c(-c2ccccc2)nc2cnc(N3CCOCC3)nc21 | 3.98 µM [rising, partial curve] |
| O=C(OCc1nc2ccccc2s1)C1CCN(S(=O)(=O)c2cccs2)CC1 | 3.98 µM [falling, single point] |
| Nc1c(C(=O)c2ccc(Br)s2)oc2ccccc12 | 12.6 µM [rising, single point] |
| O=C(c1ccco1)N1CCN(C(=O)C2CCCO2)CC1 (configuration not stated) | 0.01 µM [falling, full curve, poor fit] |
| O=C(CSc1nc2ncc(Br)cc2[nH]1)Nc1ccc2c(c1)OCO2 | 0.126 µM [falling, full curve, poor fit] |
| c1ccc(Cn2nnc3c(N4CCCC4)ncnc32)cc1 | 12.6 µM [rising, partial curve] |
| O=C(Nc1cccc(C(F)(F)F)c1)C1CCCN1S(=O)(=O)c1cccc2cccnc12 (configuration not stated) | 0.01 µM [falling, full curve, poor fit] |
| CN(C)CCCN1C(=O)C(=O)/C(=C(/O)c2ccc3c(c2)OCCO3)C1c1ccco1 (configuration not stated) | 25.1 µM [rising, single point] |
| CC(C)Cc1nnc(NC(=O)c2ccncc2)s1 | 0.251 µM [falling, partial curve] |
| c1ccc2c(-c3ccncc3)c[nH]c2c1 | 15.8 µM [falling, partial curve] |
| COc1cccc(C2CC(c3ccccc3Cl)Nc3nc(N)nn32)c1 (configuration not stated) | 25.1 µM [rising, single point] |
| Cc1c(N=Cc2c(O)n(Cc3ccco3)c(=O)c3ccccc23)c(=O)n(-c2ccccc2)n1C | 5.01 µM [rising, partial curve] |
| N#Cc1c(NC(=O)Cn2cnc3ccccc3c2=O)oc(-c2ccccc2)c1-c1ccccc1 | 7.94 µM [rising, partial curve] |
| COCCn1c(=O)c(-c2cccs2)nc2cnc(N3CCN(C)CC3)nc21 | 10 µM [rising, partial curve] |
| O=C(Nc1ccc(N2CCN(C(=O)c3ccco3)CC2)c(Cl)c1)c1cc2ccccc2o1 | 6.31 µM [falling, partial curve] |
| COC(=O)C1=C(C)N(Cc2ccco2)C(=O)C1 | 0.00398 µM [falling, full curve] |
| COc1ccc(-c2noc(CSc3nc(N)c(-c4ccccc4)c(=O)[nH]3)n2)cc1OC | 20 µM [rising, single point] |
| CCn1c(C(C)NC(=O)c2ccc(OC)c(OC)c2)nc2ccccc21 (configuration not stated) | 25.1 µM [rising, single point] |
| CCOc1cc(-c2noc(CCCC(N)=O)n2)cc(Br)c1OC | 3.98 µM [rising, partial curve, poor fit] |
| COc1ccc(-c2nc3cnc(N4CCOCC4)nc3n(C[C@H]3CCCO3)c2=O)cc1 | 12.6 µM [rising, partial curve] |
| COc1ccc(S(=O)(=O)Nc2ccc(C)cc2)cc1OC | 20 µM [rising, single point] |

In the list so far, 3 have a CF3 group.

| SMILES | AC50 |
| --- | --- |
| FC(F)(F)c1ccccc1-c1nc(Nc2ccncc2)c2ccccc2n1 | 0.794 µM [rising, partial curve] |
| O=C(Nc1ccc(Cl)c(C(F)(F)F)c1)C1CCCN(S(=O)(=O)c2cnc[nH]2)C1 (configuration not stated) | 0.0794 µM [falling, full curve, poor fit] |
| O=C(Nc1cccc(C(F)(F)F)c1)C1CCCN1S(=O)(=O)c1cccc2cccnc12 (configuration not stated) | 0.01 µM [falling, full curve, poor fit] |
